# Assay results as given in the supplement of paper PMC12067093, “Discovery and optimisation of a covalent ligand for TRIM25 and its application to targeted protein ubiquitination” (Chemical Science, 2025).
# The chains behind the UniProt entries cited, without tags or fusion partners. Where a name states a change or a piece, a line headed by the entry shows the natural chain unless it says otherwise.
# UniProt Q96JN0: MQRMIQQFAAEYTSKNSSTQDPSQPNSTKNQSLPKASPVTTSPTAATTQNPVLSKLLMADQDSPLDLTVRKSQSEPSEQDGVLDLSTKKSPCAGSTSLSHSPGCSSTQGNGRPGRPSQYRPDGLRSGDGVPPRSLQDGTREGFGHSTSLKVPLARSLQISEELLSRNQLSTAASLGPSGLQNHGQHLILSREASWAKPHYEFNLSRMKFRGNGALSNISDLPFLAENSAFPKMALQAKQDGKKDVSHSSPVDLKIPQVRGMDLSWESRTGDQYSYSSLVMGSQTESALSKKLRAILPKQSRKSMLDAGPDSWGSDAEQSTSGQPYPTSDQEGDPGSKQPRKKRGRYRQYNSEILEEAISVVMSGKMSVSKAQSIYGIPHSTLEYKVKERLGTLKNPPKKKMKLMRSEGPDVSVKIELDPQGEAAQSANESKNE
# UniProt O14686, whole entry, looked up: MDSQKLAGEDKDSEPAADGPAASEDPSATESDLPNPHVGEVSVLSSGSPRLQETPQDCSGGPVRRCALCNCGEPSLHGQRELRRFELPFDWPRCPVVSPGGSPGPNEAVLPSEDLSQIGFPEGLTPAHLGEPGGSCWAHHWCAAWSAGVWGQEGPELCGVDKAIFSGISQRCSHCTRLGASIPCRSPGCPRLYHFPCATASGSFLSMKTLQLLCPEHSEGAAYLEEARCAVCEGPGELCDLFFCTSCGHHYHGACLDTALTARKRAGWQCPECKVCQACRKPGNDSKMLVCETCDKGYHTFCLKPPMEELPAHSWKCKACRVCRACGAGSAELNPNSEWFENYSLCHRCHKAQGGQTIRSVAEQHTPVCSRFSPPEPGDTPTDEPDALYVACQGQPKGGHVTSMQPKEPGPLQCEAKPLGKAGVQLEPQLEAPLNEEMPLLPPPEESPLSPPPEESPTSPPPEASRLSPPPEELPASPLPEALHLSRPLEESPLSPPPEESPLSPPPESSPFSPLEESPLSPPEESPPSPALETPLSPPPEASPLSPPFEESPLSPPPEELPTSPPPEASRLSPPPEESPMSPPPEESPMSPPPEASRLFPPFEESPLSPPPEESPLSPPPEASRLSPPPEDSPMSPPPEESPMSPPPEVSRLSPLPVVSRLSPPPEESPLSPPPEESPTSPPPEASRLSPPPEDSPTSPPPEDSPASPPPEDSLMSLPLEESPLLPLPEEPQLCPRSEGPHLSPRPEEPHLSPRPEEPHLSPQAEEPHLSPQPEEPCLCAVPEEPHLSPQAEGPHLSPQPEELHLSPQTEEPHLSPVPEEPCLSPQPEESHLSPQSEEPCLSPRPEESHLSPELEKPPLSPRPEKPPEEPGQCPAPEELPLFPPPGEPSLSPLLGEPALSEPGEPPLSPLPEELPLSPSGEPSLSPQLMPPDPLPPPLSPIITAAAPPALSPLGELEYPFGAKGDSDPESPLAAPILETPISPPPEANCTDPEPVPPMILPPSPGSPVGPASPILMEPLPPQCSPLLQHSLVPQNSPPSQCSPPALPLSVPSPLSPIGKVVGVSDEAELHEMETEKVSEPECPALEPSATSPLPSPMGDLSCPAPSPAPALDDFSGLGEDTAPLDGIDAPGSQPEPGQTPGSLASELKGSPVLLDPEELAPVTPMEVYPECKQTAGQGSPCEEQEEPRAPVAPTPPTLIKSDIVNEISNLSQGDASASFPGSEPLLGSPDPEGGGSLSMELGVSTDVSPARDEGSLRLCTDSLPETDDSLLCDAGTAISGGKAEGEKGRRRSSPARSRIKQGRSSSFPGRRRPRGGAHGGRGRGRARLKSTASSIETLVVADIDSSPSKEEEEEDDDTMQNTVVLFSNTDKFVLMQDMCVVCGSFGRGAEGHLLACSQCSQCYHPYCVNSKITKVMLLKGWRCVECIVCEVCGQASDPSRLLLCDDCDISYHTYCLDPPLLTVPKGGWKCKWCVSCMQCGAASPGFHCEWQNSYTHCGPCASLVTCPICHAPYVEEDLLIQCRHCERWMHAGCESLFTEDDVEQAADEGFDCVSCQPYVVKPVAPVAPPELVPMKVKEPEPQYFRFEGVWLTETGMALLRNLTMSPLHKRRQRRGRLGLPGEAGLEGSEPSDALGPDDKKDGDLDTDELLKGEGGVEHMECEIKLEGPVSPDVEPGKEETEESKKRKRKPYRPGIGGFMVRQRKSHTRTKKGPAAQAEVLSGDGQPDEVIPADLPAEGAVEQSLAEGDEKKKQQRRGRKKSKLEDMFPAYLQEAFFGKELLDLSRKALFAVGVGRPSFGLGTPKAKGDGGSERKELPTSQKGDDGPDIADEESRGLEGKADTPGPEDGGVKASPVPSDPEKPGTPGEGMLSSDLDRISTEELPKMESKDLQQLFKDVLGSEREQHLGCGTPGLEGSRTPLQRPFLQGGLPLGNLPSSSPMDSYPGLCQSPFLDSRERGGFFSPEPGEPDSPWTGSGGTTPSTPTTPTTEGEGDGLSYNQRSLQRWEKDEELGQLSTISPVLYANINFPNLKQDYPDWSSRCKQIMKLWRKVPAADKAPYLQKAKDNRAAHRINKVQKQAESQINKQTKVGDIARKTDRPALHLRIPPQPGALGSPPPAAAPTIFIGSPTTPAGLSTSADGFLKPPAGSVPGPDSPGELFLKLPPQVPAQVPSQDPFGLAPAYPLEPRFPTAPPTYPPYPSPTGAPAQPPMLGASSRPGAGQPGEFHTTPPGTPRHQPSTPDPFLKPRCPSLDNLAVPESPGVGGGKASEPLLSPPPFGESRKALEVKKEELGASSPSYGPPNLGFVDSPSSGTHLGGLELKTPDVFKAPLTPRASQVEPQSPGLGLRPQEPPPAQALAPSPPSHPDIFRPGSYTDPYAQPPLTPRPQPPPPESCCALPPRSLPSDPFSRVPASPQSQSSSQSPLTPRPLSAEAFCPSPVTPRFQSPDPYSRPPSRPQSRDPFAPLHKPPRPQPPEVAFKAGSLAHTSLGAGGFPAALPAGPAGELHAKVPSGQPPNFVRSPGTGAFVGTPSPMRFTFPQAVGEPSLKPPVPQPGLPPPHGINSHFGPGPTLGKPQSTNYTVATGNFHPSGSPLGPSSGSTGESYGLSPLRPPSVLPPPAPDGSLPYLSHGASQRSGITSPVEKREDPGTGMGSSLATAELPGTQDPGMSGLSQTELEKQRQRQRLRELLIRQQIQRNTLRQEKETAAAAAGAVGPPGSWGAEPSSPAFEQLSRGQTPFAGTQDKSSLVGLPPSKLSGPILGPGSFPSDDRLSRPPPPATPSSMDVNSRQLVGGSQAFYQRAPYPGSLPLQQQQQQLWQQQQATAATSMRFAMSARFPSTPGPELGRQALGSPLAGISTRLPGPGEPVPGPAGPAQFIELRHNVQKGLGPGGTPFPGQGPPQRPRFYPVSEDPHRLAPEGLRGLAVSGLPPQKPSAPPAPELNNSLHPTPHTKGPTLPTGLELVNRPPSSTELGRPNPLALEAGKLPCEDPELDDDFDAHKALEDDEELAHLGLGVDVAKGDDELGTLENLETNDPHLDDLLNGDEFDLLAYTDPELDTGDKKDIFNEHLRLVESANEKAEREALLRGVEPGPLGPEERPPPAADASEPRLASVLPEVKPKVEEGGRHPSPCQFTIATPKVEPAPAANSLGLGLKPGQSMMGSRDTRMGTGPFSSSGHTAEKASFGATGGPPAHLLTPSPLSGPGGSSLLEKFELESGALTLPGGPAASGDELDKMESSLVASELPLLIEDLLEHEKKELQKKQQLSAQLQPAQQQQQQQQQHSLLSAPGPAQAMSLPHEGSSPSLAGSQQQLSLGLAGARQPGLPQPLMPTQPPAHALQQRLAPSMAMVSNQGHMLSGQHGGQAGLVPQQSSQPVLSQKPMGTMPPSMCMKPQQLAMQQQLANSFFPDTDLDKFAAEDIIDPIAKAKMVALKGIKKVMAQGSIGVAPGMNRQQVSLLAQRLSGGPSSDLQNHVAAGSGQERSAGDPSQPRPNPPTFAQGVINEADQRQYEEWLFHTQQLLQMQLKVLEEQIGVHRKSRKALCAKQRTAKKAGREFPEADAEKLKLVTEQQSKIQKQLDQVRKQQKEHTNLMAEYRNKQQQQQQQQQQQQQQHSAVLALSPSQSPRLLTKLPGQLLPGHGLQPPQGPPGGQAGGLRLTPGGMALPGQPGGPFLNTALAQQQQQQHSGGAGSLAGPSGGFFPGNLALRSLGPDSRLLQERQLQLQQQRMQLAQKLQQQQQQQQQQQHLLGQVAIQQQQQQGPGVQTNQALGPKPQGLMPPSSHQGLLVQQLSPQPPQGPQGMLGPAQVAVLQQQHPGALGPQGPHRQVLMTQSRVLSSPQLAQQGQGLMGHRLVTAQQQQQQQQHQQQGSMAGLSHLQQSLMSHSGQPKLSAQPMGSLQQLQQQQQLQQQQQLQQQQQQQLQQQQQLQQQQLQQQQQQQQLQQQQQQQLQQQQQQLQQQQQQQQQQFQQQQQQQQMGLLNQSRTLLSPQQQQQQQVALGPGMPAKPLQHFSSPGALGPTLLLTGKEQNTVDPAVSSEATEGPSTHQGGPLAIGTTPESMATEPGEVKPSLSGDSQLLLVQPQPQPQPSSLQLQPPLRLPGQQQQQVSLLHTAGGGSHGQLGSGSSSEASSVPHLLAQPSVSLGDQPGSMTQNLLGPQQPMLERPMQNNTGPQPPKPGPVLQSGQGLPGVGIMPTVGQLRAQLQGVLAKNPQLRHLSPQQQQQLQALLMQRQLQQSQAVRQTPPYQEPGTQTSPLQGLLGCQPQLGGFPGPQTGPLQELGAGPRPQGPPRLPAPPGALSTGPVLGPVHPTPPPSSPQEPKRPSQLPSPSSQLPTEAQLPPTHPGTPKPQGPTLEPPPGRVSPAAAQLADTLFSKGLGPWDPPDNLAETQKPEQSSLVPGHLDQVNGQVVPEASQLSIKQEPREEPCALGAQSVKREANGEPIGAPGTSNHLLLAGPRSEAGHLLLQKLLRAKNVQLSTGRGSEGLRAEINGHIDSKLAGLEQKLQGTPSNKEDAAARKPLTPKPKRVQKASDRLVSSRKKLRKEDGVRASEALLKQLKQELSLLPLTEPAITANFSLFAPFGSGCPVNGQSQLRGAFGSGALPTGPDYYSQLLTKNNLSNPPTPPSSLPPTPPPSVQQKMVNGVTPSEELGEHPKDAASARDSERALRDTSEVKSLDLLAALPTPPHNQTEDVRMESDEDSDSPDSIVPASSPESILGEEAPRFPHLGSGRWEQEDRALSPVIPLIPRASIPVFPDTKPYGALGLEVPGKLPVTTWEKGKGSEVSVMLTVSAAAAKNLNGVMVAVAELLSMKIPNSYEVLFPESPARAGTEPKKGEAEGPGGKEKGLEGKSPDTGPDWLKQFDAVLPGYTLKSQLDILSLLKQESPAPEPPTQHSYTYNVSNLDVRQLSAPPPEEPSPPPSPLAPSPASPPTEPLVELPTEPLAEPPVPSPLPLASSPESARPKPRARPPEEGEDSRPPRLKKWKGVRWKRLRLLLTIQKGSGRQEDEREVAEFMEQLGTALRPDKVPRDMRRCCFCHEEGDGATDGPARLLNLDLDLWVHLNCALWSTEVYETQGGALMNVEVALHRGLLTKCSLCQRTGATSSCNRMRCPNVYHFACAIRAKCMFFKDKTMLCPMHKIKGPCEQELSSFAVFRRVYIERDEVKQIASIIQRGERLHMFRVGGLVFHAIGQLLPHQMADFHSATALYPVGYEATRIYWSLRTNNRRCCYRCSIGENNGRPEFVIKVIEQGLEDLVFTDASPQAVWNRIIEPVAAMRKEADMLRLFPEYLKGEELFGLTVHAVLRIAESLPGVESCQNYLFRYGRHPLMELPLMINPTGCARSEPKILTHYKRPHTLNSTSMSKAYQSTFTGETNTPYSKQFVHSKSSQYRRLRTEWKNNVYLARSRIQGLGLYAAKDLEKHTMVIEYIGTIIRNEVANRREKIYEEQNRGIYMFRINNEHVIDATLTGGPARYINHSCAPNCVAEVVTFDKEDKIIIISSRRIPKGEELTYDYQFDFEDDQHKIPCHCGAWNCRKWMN
# UniProt Q9H9P8: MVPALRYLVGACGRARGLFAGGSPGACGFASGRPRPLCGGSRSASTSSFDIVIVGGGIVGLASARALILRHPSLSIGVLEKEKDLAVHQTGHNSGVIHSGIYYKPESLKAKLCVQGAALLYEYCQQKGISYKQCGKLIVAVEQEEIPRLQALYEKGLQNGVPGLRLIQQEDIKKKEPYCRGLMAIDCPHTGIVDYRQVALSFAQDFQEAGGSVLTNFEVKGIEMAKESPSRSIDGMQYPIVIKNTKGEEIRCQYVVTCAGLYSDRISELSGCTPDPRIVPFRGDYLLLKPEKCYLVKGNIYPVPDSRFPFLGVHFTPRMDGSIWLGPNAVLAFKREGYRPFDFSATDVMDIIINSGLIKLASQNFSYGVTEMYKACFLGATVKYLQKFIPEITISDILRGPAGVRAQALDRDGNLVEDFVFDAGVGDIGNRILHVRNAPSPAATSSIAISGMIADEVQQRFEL
# The other results are listed elsewhere or left out.
# Compound: CC1Cc2ccccc2N1C(=O)C1CCCN(C1)C(=O)CCl (mixture of isomers) [TRIM25 ligand 11 (diastereomer mixture)]
# Experiment: probe-labelled cysteine peptide fold change vs DMSO (competition) (log2 fold change); higher = less target engagement (more negative = stronger competition)
# Conditions: 10 µM; THP-1; incubation time: 4 h
# 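Further: competitive chemoproteomic profiling in live THP-1 cells with an iodoacetamide desthiobiotin (IA-DTB) probe, comparing probe-labelled peptide intensities in compound-treated cells against DMSO-treated controls.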
row,Target,probe-labelled cysteine peptide fold change
1,KIF5B_P33176_174_FVCSPDEVMDTIDEGK (UniProt P33176),0.094
2,LDAH_Q9H6V9_274_LTFYYGTIDPWCPK (UniProt Q9H6V9),-0.0349
3,KIF2A_O00139_420_LIDIGNSCR (UniProt O00139),-0.0824
4,LACTB2_Q53H82_90_DHSGGIGDICK (UniProt Q53H82),-0.195
5,LCOR_Q96JN0-3_1334_MECPDALAVESK (UniProt Q96JN0),0.0423
6,KMT2D_O14686_214_TLQLLCPEHSEGAAYLEEAR (UniProt O14686),0.206
7,LAIR1_Q6GTX8_101_CIYYKPPK (UniProt Q6GTX8),0.0604
8,KLHL20_Q9Y2M5_356_CGVGVSVLDDLLYAVGGHDGSSYLNSVER (UniProt Q9Y2M5),0.0717
9,LARP1_Q6PKG0_238_NGDEDCQR (UniProt Q6PKG0),0.15
10,KIF20B_Q96Q89_1330_NQCSQELDMK (UniProt Q96Q89),-0.167
11,LARP7_Q4G0J3_493_DTLAAISEVLYVDLLEGDTECHAR (UniProt Q4G0J3),0.0973
12,L2HGDH_Q9H9P8_187_GLMAIDCPHTGIVDYR (UniProt Q9H9P8),0.101
13,LDHD_Q86WU2_392_GYSTDVCVPISR (UniProt Q86WU2),-0.0751
14,KLHL7_Q8IXQ5_378_DSLAACAAEGK (UniProt Q8IXQ5),-0.106
15,LCP1_P13796_101_KEGICAIGGTSEQSSVGTQHSYSEEEK (UniProt P13796),0.0278
16,KNOP1_Q1ED39_184_DVGDTCSVGK (UniProt Q1ED39),-0.128

# A different layout for part of the listing above:
row	Target	probe-labelled cysteine peptide fold change
5	LCOR_Q96JN0-3_1334_MECPDALAVESK (UniProt Q96JN0)	0.0423
6	KMT2D_O14686_214_TLQLLCPEHSEGAAYLEEAR (UniProt O14686)	0.206
